In all, about 260,000 compounds went through this assay and about 1,500 (0.58%) were called active. The inconclusive results got no clear call from the source; some entries with a clear call stand among them for comparison.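 The calls were made as follows: active = inhibition above a set limit at one or more doses, reproduced on every date tested; inconclusive = results disagree between test dates, or hit never tested in dose response; inactive = the rest.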
Biological target: Virion infectivity factor (Human immunodeficiency virus type 1 group M subtype B (isolate BH10)) + Virion infectivity factor (Human immunodeficiency virus type 1 group M subtype B (isolate BRU/LAI)) + Virion infectivity factor (Human immunodeficiency virus type 1 group M subtype B (isolate PCV12)) + Virion infectivity factor (Human immunodeficiency virus type 1 group M subtype B (isolate HXB2)) + DNA dC->dU-editing enzyme APOBEC-3G (Homo sapiens) (UniProt P69720+P69721+P69722+P69723+Q9HC16)
Test: inhibitors of Vif binding to APOBEC3G peptide, primary screen, biochemical, TR-FRET, GST-Vif 1-94, biotin-A3G peptide, dose response retest (AID 1117319);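 also: Vif residues 1-94 fused to GST binding biotinylated APOBEC3G peptide 110-148; 0% = full assay without inhibitor and 100% = GST in place of GST-Vif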
Details: active compounds read high

The chains behind the UniProt entries cited, without tags or fusion partners. Where a name states a change or a piece, a line headed by the entry shows the natural chain unless it says otherwise.
UniProt P69720: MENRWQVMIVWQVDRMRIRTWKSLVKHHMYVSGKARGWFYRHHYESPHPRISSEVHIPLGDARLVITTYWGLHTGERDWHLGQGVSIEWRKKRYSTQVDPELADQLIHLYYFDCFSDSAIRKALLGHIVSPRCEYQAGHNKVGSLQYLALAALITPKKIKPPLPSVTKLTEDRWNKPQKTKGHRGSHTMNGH
UniProt P69721: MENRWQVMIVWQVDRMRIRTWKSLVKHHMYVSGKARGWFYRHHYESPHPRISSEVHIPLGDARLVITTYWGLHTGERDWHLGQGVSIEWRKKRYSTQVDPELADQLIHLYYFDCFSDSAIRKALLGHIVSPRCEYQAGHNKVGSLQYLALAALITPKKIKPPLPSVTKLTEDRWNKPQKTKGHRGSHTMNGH
UniProt P69722: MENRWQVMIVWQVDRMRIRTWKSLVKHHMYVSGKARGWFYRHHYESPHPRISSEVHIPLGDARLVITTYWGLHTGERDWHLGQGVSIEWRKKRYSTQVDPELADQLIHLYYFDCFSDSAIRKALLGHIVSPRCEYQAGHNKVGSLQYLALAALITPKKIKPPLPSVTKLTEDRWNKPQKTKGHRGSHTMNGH
UniProt P69723: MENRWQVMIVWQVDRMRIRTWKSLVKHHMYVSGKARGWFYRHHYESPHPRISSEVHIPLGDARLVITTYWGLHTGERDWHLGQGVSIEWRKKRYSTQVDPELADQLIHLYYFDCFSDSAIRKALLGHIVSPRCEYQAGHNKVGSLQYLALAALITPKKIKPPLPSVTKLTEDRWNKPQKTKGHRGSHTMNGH
UniProt Q9HC16: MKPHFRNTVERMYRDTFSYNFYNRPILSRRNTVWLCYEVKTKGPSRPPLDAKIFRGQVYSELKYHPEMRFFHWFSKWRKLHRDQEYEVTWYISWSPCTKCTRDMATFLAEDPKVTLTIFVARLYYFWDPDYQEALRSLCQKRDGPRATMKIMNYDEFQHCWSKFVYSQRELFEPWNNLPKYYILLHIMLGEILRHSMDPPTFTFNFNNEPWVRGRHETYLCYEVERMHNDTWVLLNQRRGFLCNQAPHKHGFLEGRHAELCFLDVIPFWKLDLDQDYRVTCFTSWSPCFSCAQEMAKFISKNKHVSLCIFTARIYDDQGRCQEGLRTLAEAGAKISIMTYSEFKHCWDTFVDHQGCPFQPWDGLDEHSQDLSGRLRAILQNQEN

SMILES	inhibition
Cn1cnnc1SCC(=O)c1cccc([N+](=O)[O-])c1	inconclusive: 36.9%
CCN(CC)CCNC(=O)c1ccc(-n2c(C)cc3c2CCCC3=O)cc1	inconclusive: 34.9%
CN1CCc2nc(SCC(=O)Nc3ccc(OC(F)(F)F)cc3)c(C#N)c(-c3cccs3)c2C1	inconclusive: 65%
Cc1ccc2c(N)c(C#N)sc2n1	inconclusive: 35.8%
C/C(=N\NC(=O)c1ccc(N/N=C(\C)c2ccncc2)cc1)c1ccncc1	inconclusive: 52.2%
CCN(CC)CCn1c2ccccc2c2nc3ccccc3nc21	inactive: -1.16%
CC(=O)N1CCN(c2ccc(NCc3cccc4ccccc34)cc2)CC1	inactive: 28.3%
O=C(NNc1nc(-c2ccccc2)cs1)c1cccs1	inconclusive: 36%
N/C(CC(=O)NCCOc1ccccc1)=N\O	inconclusive: 37.7%
Clc1ccccc1-c1nnc2sc(-c3ccco3)nn12	inconclusive: 23%
COc1cc(NC(=O)c2cnn3c(C)cc(C)nc23)c(OC)cc1Cl	inactive: 0.24%
Cc1nc2nc[nH]n2c(=O)c1NS(=O)(=O)c1ccc([N+](=O)[O-])cc1	inconclusive: 42.3%
Cc1ccccc1N1Cc2ccccc2C1	inconclusive: 38.3%
CC(NC(=O)Cc1ccccc1)c1cc2c(cc1Br)OCCCO2 (centres undefined)	inconclusive: 39.1%
Cc1cccc(N2N=C(C(=O)Nc3nc(C)cs3)CCC2=O)c1	inconclusive: 50.8%
CC(=O)c1cccc(NC(=O)Nc2ccc(C)cc2)c1	inconclusive: 39%
CSCCC(NC(=O)/C(=C/c1ccco1)NC(=O)c1ccc(Br)o1)C(=O)O (centres undefined)	inactive: 13.7%
O=C1CC(C(=O)O)S/C(=N\NC(=O)c2ccc(F)cc2)N1 (centres undefined)	inconclusive: 47.1%
O=C(NCc1ccccc1)C1CCCN(C(=O)Nc2ccccc2)C1 (centres undefined)	inconclusive: 27.6%
COc1ccc(C2OC[C@H]3O[C@H](O)[C@H](NC(C)=O)[C@@H](O)[C@@H]3O2)cc1 (some centres undefined)	inconclusive: 34.4%
CC(=O)Nc1ccc2[nH]c3ccccc3c2c1	inconclusive: 35.1%
CSc1nnc(C)c(=O)[nH]1	inconclusive: 34.6%
CCC(C)NC(=O)C(Cc1ccccc1)NS(=O)(=O)c1ccc2c(c1)CCC(=O)N2 (centres undefined)	inactive: -0.93%

A second format for some results above:

| SMILES | inhibition |
| --- | --- |
| COc1cc(NC(=O)c2cnn3c(C)cc(C)nc23)c(OC)cc1Cl | inactive: 0.24% |
| Cc1nc2nc[nH]n2c(=O)c1NS(=O)(=O)c1ccc([N+](=O)[O-])cc1 | inconclusive: 42.3% |
| Cc1ccccc1N1Cc2ccccc2C1 | inconclusive: 38.3% |
| CC(NC(=O)Cc1ccccc1)c1cc2c(cc1Br)OCCCO2 (centres undefined) | inconclusive: 39.1% |
| Cc1cccc(N2N=C(C(=O)Nc3nc(C)cs3)CCC2=O)c1 | inconclusive: 50.8% |
| CC(=O)c1cccc(NC(=O)Nc2ccc(C)cc2)c1 | inconclusive: 39% |

Later entries.

SMILES	inhibition
C/C(=N/NC(=O)c1cc(-c2ccc(Cl)s2)[nH]n1)c1ccco1	inconclusive: 40.1%
COc1ccc(S(=O)(=O)N2CCCCCC2)cc1C(=O)N(C)Cc1ccc(F)cc1	inactive: 4.27%
CCOc1cc(N2CCOCC2)c(OCC)cc1NC(=O)COc1ccc2ccc(=O)oc2c1	inactive: -0.33%
O=C(COC(=O)c1cccnc1Cl)c1ccc(Cl)cc1Cl	inconclusive: 44.8%
CCCN1CCCc2cc(CN)ccc21	inconclusive: 54.9%
O=C(Oc1coc(CSc2ncccn2)cc1=O)c1cccc([N+](=O)[O-])c1	inactive: -1.78%
NC(=O)c1ncc(C(F)(F)F)cc1Oc1cccnc1	inactive: -3.05%
Cn1cc(S(=O)(=O)CC(=O)N2CCc3ccccc32)c2ccccc21	inconclusive: 47.5%
CC(C)(C)c1c(Cl)c(O)c(-c2ccccc2)c(=O)n1-c1ccccc1	inactive: 11.4%
CC(Sc1nnc(Nc2ccccc2)s1)C(=O)NC1CCCc2ccccc21 (centres undefined)	inconclusive: 33.5%
COc1cc(/C=C2/S/C(=N/S(=O)(=O)Cc3ccccc3)NC2=O)c([N+](=O)[O-])cc1OC	inconclusive: 33.2%
CC(=O)Oc1ccc(C(c2ccc(OC(C)=O)cc2)c2ccccn2)cc1	inconclusive: 33.8%
COCCN(C(=O)Cn1nnc2ccccc21)C(C(=O)NC1CCCCC1)c1ccc(OC)cc1OC (centres undefined)	inconclusive: 33.7%
Fc1ccc(OCCCCN2CCOCC2)cc1	inconclusive: 42.4%
O=C(CN1CCN(c2ccc(O)cc2)CC1)Nc1cc(S(=O)(=O)N2CCCC2)ccc1Cl	inconclusive: 37.3%
Cn1c(COc2ccc(Cl)cc2)nnc1SCc1ncc(-c2ccccc2)o1	inconclusive: 45.4%
COc1ccc(C(=O)/C=C/c2ccc(F)cc2)c(OC(=O)c2ccc([N+](=O)[O-])cc2)c1	inconclusive: 38.9%
Cc1ccc(S(=O)(=O)N2CCCCC2)cc1NC(=O)c1ccc2c(=O)n3c(nc2c1)CCCCC3	inconclusive: 58.7%
Cc1c(NC(=O)c2cccs2)cccc1C(=O)O	inconclusive: 47%
CC1CCC/C(=C\Nc2ccccc2C(=O)O)C1=O (centres undefined)	inactive: 5.74%
Cc1cccc(C(=O)NNC(=O)c2ccccc2Br)c1	inconclusive: 44.8%
Cc1cc(CNC(=O)CC2C(=O)NCCN2Cc2ccccc2C(F)(F)F)nn1C (centres undefined)	inconclusive: 59.5%
OCCN(Cc1ccccc1)Cc1ccccc1F	inconclusive: 44.7%

Three entries from above, ordered by length of the SMILES, ascending.
SMILES	inhibition
Cc1cccc(C(=O)NNC(=O)c2ccccc2Br)c1	inconclusive: 44.8%
C/C(=N/NC(=O)c1cc(-c2ccc(Cl)s2)[nH]n1)c1ccco1	inconclusive: 40.1%
CSCCC(NC(=O)/C(=C/c1ccco1)NC(=O)c1ccc(Br)o1)C(=O)O (centres undefined)	inactive: 13.7%

Further results follow.

SMILES	inhibition
Cc1nc2c(=O)[nH]c3ccccc3c2o1	inconclusive: 46.3%
CCOC(=O)C1CCN(c2c([N+](=O)[O-])c(C(Cl)Cl)nn2-c2ccccc2)CC1	inconclusive: 57.8%
O=C(NCCc1ccccc1)C1CCN(S(=O)(=O)c2cccc3nsnc23)CC1	inactive: -0.39%
O=C(O)CCn1cc(C2CC(c3ccccc3)=NN2c2ccccc2)c(-c2ccccc2)n1 (centres undefined)	inconclusive: 51.6%
N#C/C(=C/c1cccn1-c1cccc(C(=O)O)c1)c1ccc(Cl)cc1	inconclusive: 44.9%
CN(C)S(=O)(=O)c1cccc(NC(=O)/C=C/c2ccccc2[N+](=O)[O-])c1	inconclusive: 46.8%
CCN1CCC(NC(=O)Nc2ccc(F)cc2F)CC1	inconclusive: 41.9%
O=C(CCc1ccccc1)NC1CCSC1=O (centres undefined)	inconclusive: 59.9%
Nc1ccc2oc(-c3cccs3)nc2c1	inconclusive: 47.2%
CCOC(=O)N1CCN(C(=O)Cn2nc(-c3ccc(Cl)cc3)ccc2=O)CC1	inconclusive: 49.6%
COc1ccc(C2CC(C(F)(F)F)n3ncc(C(=O)O)c3N2)cc1OC (centres undefined)	inconclusive: 34.6%
CC(=O)C1=C(C)NC(SCC(=O)c2ccccc2)=C(C#N)C1c1ccco1 (centres undefined)	inconclusive: 34.6%
O=S(=O)(Cc1ccccc1)N1CCN(Cc2ccc3c(c2)OCO3)CC1	inconclusive: 60.6%
CS(=O)(=O)N(CC(=O)Nc1ccc(S(=O)(=O)N2CCCC2)cc1)c1ccccc1F	inconclusive: 49.8%
O=S(=O)(c1cccc2cnccc12)N1CCCNCC1	inconclusive: 43.3%
COc1ccc2c(c1)c(=O)oc1cc(OCC(=O)NC3CC3)ccc12	inactive: -2.02%
CC1=C(C(N)=O)C(c2cccs2)n2nc(-c3cccc(C)c3)nc2N1 (centres undefined)	inactive: 10.3%
CC(=O)Oc1ccc2c(=O)c(Oc3ccccc3)coc2c1OC(C)=O	inconclusive: 55.2%
CCOc1cc(/C=C2/SC(=S)NC2=O)ccc1OC(=O)c1ccco1	inconclusive: 38.3%
C=CCOC(=O)C1=C(C)Nc2ncnn2C1c1cccs1 (centres undefined)	inconclusive: 52.6%
CC1CCCCN1Cc1ccc(N)cc1 (centres undefined)	inactive: -2.03%
CCOCCCNC(=O)/C(C#N)=C/c1cc(C)c(O)c(C)c1	inconclusive: 40.3%
C/C(=N/N1CCN(c2ccccc2)CC1)c1cccc([N+](=O)[O-])c1	inconclusive: 39.5%

SMILES	inhibition
CC(=O)OC[C@H]1O[C@@H](O/N=C/[C@@H](C)[C@H](OCc2ccccc2)C(C)C)[C@H](OC(C)=O)[C@@H](OC(C)=O)[C@@H]1OC(C)=O	inconclusive: 47.8%
COc1ccc(CN2CCNC(=O)C2CC(=O)NCCc2nc(C)c(C)s2)c(OC)c1 (centres undefined)	inconclusive: 58.2%
O=C1C2C3C=CC(O3)C2C(=O)N1CC(O)c1ccccc1 (centres undefined)	inconclusive: 30.6%
O=C(O)CNC(=O)CCN1C(=O)c2ccccc2C1=O	inconclusive: 35.7%
COc1ccccc1CCN=C(N)NS(=O)(=O)c1ccc(C)cc1	inconclusive: 46.4%
Cc1ccc(CSCCNC(=O)CSCc2ccc([N+](=O)[O-])cc2)cc1	inconclusive: 37.1%
CCn1cc(C(=O)N2CCN(Cc3ccc4c(c3)OCO4)CC2)c2cc(OC)c(OC)cc2c1=O	inconclusive: 33.9%
CCc1ccc(S(=O)(=O)ON2C(=O)c3ccccc3C2=O)cc1	inactive: 5.83%
C=C(C)C(=O)Nc1ccc(OC(F)(F)C(F)F)c(NC(=O)C(=C)C)c1	inconclusive: 55.2%
Cc1c(C(=O)N/N=C/c2ccc(O)cc2)sc(=S)n1C	inconclusive: 37.5%
Cc1ccccc1OCC(=O)N/N=C/c1cn(C)c2ccccc12	inconclusive: 34.3%
O=c1[nH]c(C2CCCCC2)nc2ccccc12	inconclusive: 33.1%
O=C(Cc1ccccc1)N1CCC(O)(c2cccnc2)CC1	inconclusive: 37.6%
CCOc1ccc(S(=O)(=O)Nc2ccc3c(c2)c2c(n3S(=O)(=O)c3ccc(OCC)cc3)CCCC2=O)cc1	inconclusive: 44.5%
CCOC(=O)c1sc(NC(=O)C2C3C=CC(C3)C2C(=O)O)nc1C (centres undefined)	inconclusive: 35%
O=C(COC(=O)C1CCN(S(=O)(=O)c2cccs2)CC1)Nc1ccccc1	inactive: -2.54%
O=C(Nc1ccc2c(c1)OCO2)c1ccc(=O)[nH]n1	inconclusive: 63.8%
Cc1cc(C(=O)N/N=C/c2cccc([N+](=O)[O-])c2O)n[nH]1	inconclusive: 51.7%
COc1ccccc1C(=O)N1CCCC(c2nc(-c3cc(OC)c(OC)c(OC)c3)no2)C1 (centres undefined)	inconclusive: 46.5%
COC(C(=O)Nc1ccc(S(=O)(=O)Nc2cccc3ccccc23)cc1)c1ccccc1 (centres undefined)	inconclusive: 39.5%

— PubChem BioAssay AID1117319 (Southern Research Institute, 2015)
